# Results published in PMC11062894, “Protein-based bandpass filters for controlling cellular signaling with chemical inputs” (Nature Chemical Biology, 2023).
# Values joined by “and” are separate entries in the source; they are usually repeats but may differ in a detail not shown here. Identical values can stand only once. This continues a long series; more values of the same kind are listed elsewhere.
# Test system: GEMS receptors with CBPvene (Bcl2–LD3 and Bcl2high variants), STAT3-driven SEAP in HEK293T cells
# Test: GEMS SEAP reporter assay, CBPvene (Bcl2high, LD3-v and Bcl2-v variants) with venetoclax
# Type: cell-based
# [1] = Supp Fig 10a, Bcl2-v1, venetoclax 1 nM
# [2] = Supp Fig 10a, Bcl2-v1, venetoclax 3.16 nM
# [3] = Supp Fig 10a, Bcl2-v1, venetoclax 10 nM
# [4] = Supp Fig 10a, Bcl2-v1, venetoclax 31.6 nM
# [5] = Supp Fig 10a, Bcl2-v1, venetoclax 100 nM
# [6] = Supp Fig 10a, Bcl2-v2, venetoclax 1 nM
# [7] = Supp Fig 10a, Bcl2-v2, venetoclax 3.16 nM
# [8] = Supp Fig 10a, Bcl2-v2, venetoclax 10 nM
# [9] = Supp Fig 10a, Bcl2-v2, venetoclax 31.6 nM
# [10] = Supp Fig 10a, Bcl2-v2, venetoclax 100 nM
# [11] = Supp Fig 10a, Bcl2-v3, venetoclax 1 nM
# [12] = Supp Fig 10a, Bcl2-v3, venetoclax 3.16 nM
# [13] = Supp Fig 10a, Bcl2-v3, venetoclax 10 nM
# [14] = Supp Fig 10a, Bcl2-v3, venetoclax 31.6 nM
# [15] = Supp Fig 10a, Bcl2-v3, venetoclax 100 nM
# [16] = Supp Fig 10a, Bcl2-v4, venetoclax 1 nM
# [17] = Supp Fig 10a, Bcl2-v4, venetoclax 3.16 nM
# [18] = Supp Fig 10a, Bcl2-v4, venetoclax 10 nM
# [19] = Supp Fig 10a, Bcl2-v4, venetoclax 31.6 nM
# [20] = Supp Fig 10a, Bcl2-v4, venetoclax 100 nM
# [21] = Supp Fig 10a, Bcl2-v5, venetoclax 1 nM
# [22] = Supp Fig 10a, Bcl2-v5, venetoclax 3.16 nM
# [23] = Supp Fig 10a, Bcl2-v5, venetoclax 10 nM
# [24] = Supp Fig 10a, Bcl2-v5, venetoclax 31.6 nM
# [25] = Supp Fig 10a, Bcl2-v5, venetoclax 100 nM
# [26] = Supp Fig 10a, Bcl2-v6, venetoclax 1 nM
# [27] = Supp Fig 10a, Bcl2-v6, venetoclax 3.16 nM
# [28] = Supp Fig 10a, Bcl2-v6, venetoclax 10 nM
# [29] = Supp Fig 10a, Bcl2-v6, venetoclax 31.6 nM
# [30] = Supp Fig 10a, Bcl2-v6, venetoclax 100 nM
# [31] = Supp Fig 10a, Bcl2, venetoclax 1 nM
# [32] = Supp Fig 10a, Bcl2, venetoclax 3.16 nM
# [33] = Supp Fig 10a, Bcl2, venetoclax 10 nM
# [34] = Supp Fig 10a, Bcl2, venetoclax 31.6 nM
# [35] = Supp Fig 10a, Bcl2, venetoclax 100 nM
# [36] = Supp Fig 10c, Bcl2-v1, venetoclax 10 nM
# [37] = Supp Fig 10c, Bcl2-v1, venetoclax 31.6 nM
# [38] = Supp Fig 10c, Bcl2-v1, venetoclax 100 nM
# [39] = Supp Fig 10c, Bcl2-v1, venetoclax 316 nM
# [40] = Supp Fig 10c, Bcl2-v1, venetoclax 1000 nM
# [41] = Supp Fig 10c, Bcl2-v1, venetoclax 3160 nM
# [42] = Supp Fig 10c, Bcl2-v1, venetoclax 10000 nM
# [43] = Supp Fig 10c, Bcl2-v2, venetoclax 10 nM
# [44] = Supp Fig 10c, Bcl2-v2, venetoclax 31.6 nM
# [45] = Supp Fig 10c, Bcl2-v2, venetoclax 100 nM
# [46] = Supp Fig 10c, Bcl2-v2, venetoclax 316 nM
# [47] = Supp Fig 10c, Bcl2-v2, venetoclax 1000 nM
# [48] = Supp Fig 10c, Bcl2-v2, venetoclax 3160 nM
# [49] = Supp Fig 10c, Bcl2-v2, venetoclax 10000 nM
# [50] = Supp Fig 10c, Bcl2-v3, venetoclax 10 nM
# [51] = Supp Fig 10c, Bcl2-v3, venetoclax 31.6 nM
compound,measurement,setting,value
CC1(C)CCC(CN2CCN(c3ccc(C(=O)NS(=O)(=O)c4ccc(NCC5CCOCC5)c([N+](=O)[O-])c4)c(Oc4cnc5[nH]ccc5c4)c3)CC2)=C(c2ccc(Cl)cc2)C1 [Venetoclax],Raw data Figure 5c,"CBPVene-v5, Venetoclax 100 nM",341.722 and 335.341
same,Raw data Figure 5f,"CBPVene-v5, Venetoclax 100 nM",106.556 and 113.538
same,Raw data Figure 5f,"CBPVene-v5-Bcl2v2, Venetoclax 100 nM",149.797 and 156.012 and 191.601
same,SEAP,[1],21.6044
same,SEAP normalized (max=100),[1],92.7765
same,SEAP,[2],23.2865
same,SEAP normalized (max=100),[2],100
same,SEAP,[3],16.0345
same,SEAP normalized (max=100),[3],68.8573
same,SEAP,[4],18.9926
same,SEAP normalized (max=100),[4],81.5605
same,SEAP,[5],20.3514
same,SEAP normalized (max=100),[5],87.3956
same,SEAP,[6],10.2874
same,SEAP normalized (max=100),[6],30.7964
same,SEAP,[7],13.9068
same,SEAP normalized (max=100),[7],41.6315
same,SEAP,[8],14.5592
same,SEAP normalized (max=100),[8],43.5847
same,SEAP,[9],22.7645
same,SEAP normalized (max=100),[9],68.148
same,SEAP,[10],24.4264
same,SEAP normalized (max=100),[10],73.1231
same,SEAP,[11],27.6943
same,SEAP normalized (max=100),[11],78.7749
same,SEAP,[12],29.5268
same,SEAP normalized (max=100),[12],83.9873
same,SEAP,[13],31.648
same,SEAP normalized (max=100),[13],90.0208
same,SEAP,[14],35.1563
same,SEAP normalized (max=100),[14],100
same,SEAP,[15],29.621
same,SEAP normalized (max=100),[15],84.2551
same,SEAP,[16],41.8831
same,SEAP normalized (max=100),[16],91.7378
same,SEAP,[17],41.0528
same,SEAP normalized (max=100),[17],89.9193
same,SEAP,[18],37.2435
same,SEAP normalized (max=100),[18],81.5757
same,SEAP,[19],36.4556
same,SEAP normalized (max=100),[19],79.8498
same,SEAP,[20],22.5432
same,SEAP normalized (max=100),[20],49.3771
same,SEAP,[21],39.1594
same,SEAP normalized (max=100),[21],100
same,SEAP,[22],39.145
same,SEAP normalized (max=100),[22],99.9632
same,SEAP,[23],24.5911
same,SEAP normalized (max=100),[23],62.7975
same,SEAP,[24],31.7054
same,SEAP normalized (max=100),[24],80.9649
same,SEAP,[25],21.977
same,SEAP normalized (max=100),[25],56.1219
same,SEAP,[26],35.1249
same,SEAP normalized (max=100),[26],83.9201
same,SEAP,[27],33.3789
same,SEAP normalized (max=100),[27],79.7485
same,SEAP,[28],30.0268
same,SEAP normalized (max=100),[28],71.7397
same,SEAP,[29],32.915
same,SEAP normalized (max=100),[29],78.6401
same,SEAP,[30],29.8264
same,SEAP normalized (max=100),[30],71.261
same,SEAP,[31],29.2584
same,SEAP normalized (max=100),[31],14.2012
same,SEAP,[32],31.4339
same,SEAP normalized (max=100),[32],15.2572
same,SEAP,[33],33.1302
same,SEAP normalized (max=100),[33],16.0805
same,SEAP,[34],57.2981
same,SEAP normalized (max=100),[34],27.811
same,SEAP,[35],119.065
same,SEAP normalized (max=100),[35],57.7909
same,SEAP,[36],21.4847
same,SEAP normalized (max=100),[36],82.2419
same,SEAP,[37],15.0338
same,SEAP normalized (max=100),[37],57.5484
same,SEAP,[38],15.6772
same,SEAP normalized (max=100),[38],60.0112
same,SEAP,[39],10.7127
same,SEAP normalized (max=100),[39],41.0075
same,SEAP,[40],9.643
same,SEAP normalized (max=100),[40],36.913
same,SEAP,[41],7.627
same,SEAP normalized (max=100),[41],29.1973
same,SEAP,[42],5.427
same,SEAP normalized (max=100),[42],20.776
same,SEAP,[43],52.1135
same,SEAP normalized (max=100),[43],47.0093
same,SEAP,[44],62.3409
same,SEAP normalized (max=100),[44],56.235
same,SEAP,[45],110.858
same,SEAP normalized (max=100),[45],100
same,SEAP,[46],52.4245
same,SEAP normalized (max=100),[46],47.2898
same,SEAP,[47],36.1104
same,SEAP normalized (max=100),[47],32.5736
same,SEAP,[48],6.785
same,SEAP normalized (max=100),[48],6.121
same,SEAP,[49],7.401
same,SEAP normalized (max=100),[49],6.676
same,SEAP,[50],37.2138
same,SEAP normalized (max=100),[50],100
same,SEAP,[51],35.7018
same,SEAP normalized (max=100),[51],95.9371
